The target in the test is T1, … OF … (MAIN), FLAG-tagged (A. thaliana) (UniProt Q9LMT7).
T1 sequence: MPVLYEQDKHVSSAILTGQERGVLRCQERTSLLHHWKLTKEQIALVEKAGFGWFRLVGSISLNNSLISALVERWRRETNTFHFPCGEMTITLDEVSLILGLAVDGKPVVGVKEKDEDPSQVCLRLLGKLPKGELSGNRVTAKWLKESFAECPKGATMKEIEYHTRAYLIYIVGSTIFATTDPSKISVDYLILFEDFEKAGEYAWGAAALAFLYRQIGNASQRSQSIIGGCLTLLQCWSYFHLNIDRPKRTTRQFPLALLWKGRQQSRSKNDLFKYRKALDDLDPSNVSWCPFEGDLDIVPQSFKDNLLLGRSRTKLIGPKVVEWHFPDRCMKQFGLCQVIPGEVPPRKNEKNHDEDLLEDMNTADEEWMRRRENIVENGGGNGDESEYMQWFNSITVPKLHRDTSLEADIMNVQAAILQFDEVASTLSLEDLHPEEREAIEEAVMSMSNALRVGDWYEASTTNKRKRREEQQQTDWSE
In words: co-IP; FLAG-tagged bait captured on M2 magnetic FLAG-beads from extract of 3-week-old seedlings co-expressing both tagged proteins; IP buffer 50mM Tris pH 7.6, 150mM NaCl, 5mM MgCl2, 0.1% Nonidet P-40, 10% glycerol, 0.5 mM DTT; 2 hour at 4°C; three washes; Western blot with anti-FLAG and anti-MYC; plants expressing only one tagged protein as negative controls.

No constants are given. Whether binding was seen depends on the method and setting. In cells and extracts the contact can be indirect. Some entries that bind do so weakly or less than the wild type. Where a sequence is shown, tags or fusion partners need not be part of it.

B1: MAIN-LIKE 1 (MAIL1), MYC-tagged (protein, UniProt Q9SK32 1-509)
chain: MDIDVGPVDPSVLYEQDLHVSSAVWEGQERGLLRCQEHTSLLHQWKLTDEQINLVDKAGFGYFRKIGPMSLNNSLISALVERWRRETNTFHLPLGEMTITLDEVALVLGLEIDGDPIVGSKVGDEVAMDMCGRLLGKLPSAANKEVNCSRVKLNWLKRTFSECPEDASFDVVKCHTRAYLLYLIGSTIFATTDGDKVSVKYLPLFEDFDQAGRYAWGAAALACLYRALGNASLKSQSNICGCLTLLQCWSYFHLDIGRPEKSEACFPLALLWKGKGSRSKTDLSEYRRELDDLDPSKITWCPYERFENLIPPHIKAKLILGRSKTTLVCFEKIELHFPDRCLRQFGKRQPIPLKVKRRDRKNRRLDDLDTSMSLACEEWAERGDHIVDSPGGGNVVDDGAYMEWYARISITKLYREAFLESQVMNMIACMREFEEAASGIALERLSPAEREVMESVKDTFANSLTFGGWQEVAVNSGYGKRRRRNEHTPTPNNGGGNDISSLLLQKEDS
Turning to B1, the binding result was “binds”.

The record behind these values is article PMC7156037.
